Some of the results follow.
Experiments:
Experiment in all cases: log2 fold change, soluble protein after heating vs DMSO (PISA); higher = thermal stabilisation; K562 cells, 10 uM, 30 min; active = over 0.2 and 3.5 SD of the protein, either way, in both replicates (recomputed)
[1] = compound: CC[C@@H]1C(=O)N(C)c2cnc(Nc3ccc(C(=O)NC4CCN(C)CC4)cc3OC)nc2N1C1CCCC1
Procedure, shortened: (§1)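 Aliquots of K562 cells (2×10^6 cells/mL) treated with 10 μM compound for 30 min were heated for 3 min over 48°C-58°C. After pooling and extraction in PBS with 0.5% NP-40 at 4°C, soluble protein from a 21,000xg, 90 min spin was quantified by TMTpro 16plex LC-MS/MS with channel sums equalised. Thermal stability is expressed against control samples, from duplicates, as a log2 fold change.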

Chains of the proteins cited; added tags and fusions are not shown. Lines headed by an entry give the natural chain unless they say otherwise; changes in a name come on top.
UniProt Q5T2R2: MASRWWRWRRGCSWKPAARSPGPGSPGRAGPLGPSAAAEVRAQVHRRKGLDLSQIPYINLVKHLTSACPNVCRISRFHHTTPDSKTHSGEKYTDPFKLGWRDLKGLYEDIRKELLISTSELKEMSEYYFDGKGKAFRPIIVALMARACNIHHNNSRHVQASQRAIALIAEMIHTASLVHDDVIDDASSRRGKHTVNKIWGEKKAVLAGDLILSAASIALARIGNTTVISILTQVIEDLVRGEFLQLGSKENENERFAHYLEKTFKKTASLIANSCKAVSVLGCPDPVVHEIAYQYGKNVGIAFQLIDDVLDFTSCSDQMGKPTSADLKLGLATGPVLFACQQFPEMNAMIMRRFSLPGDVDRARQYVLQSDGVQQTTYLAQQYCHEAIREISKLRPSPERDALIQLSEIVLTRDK
UniProt P05165: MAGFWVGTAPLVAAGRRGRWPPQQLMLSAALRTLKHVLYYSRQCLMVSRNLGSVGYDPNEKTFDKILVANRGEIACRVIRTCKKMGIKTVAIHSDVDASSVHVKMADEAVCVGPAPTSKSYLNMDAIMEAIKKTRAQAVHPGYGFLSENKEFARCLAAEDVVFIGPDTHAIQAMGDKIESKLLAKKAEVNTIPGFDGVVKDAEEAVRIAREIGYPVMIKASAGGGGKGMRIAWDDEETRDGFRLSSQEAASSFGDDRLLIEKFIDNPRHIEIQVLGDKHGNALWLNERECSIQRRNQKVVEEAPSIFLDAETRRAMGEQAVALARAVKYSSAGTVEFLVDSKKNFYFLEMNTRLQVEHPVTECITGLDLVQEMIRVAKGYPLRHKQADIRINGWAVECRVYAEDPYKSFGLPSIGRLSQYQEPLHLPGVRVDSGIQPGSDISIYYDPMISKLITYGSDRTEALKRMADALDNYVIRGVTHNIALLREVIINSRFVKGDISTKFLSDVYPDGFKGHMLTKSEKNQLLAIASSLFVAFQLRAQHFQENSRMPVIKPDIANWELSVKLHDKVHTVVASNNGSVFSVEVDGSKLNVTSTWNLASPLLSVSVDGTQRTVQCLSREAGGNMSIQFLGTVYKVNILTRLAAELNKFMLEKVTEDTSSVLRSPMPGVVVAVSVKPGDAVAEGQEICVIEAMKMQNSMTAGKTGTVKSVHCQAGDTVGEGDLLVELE
UniProt Q9BYG5: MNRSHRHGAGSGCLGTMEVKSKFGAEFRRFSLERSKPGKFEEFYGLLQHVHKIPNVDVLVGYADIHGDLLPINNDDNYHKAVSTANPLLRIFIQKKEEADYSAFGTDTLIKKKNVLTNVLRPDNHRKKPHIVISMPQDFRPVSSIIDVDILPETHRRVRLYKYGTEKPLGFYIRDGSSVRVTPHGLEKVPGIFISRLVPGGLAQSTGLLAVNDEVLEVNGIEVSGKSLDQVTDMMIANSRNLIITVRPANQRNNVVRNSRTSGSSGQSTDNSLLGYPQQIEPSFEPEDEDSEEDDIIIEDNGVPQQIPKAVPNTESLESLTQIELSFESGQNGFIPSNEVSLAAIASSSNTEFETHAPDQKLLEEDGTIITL
UniProt Q13371: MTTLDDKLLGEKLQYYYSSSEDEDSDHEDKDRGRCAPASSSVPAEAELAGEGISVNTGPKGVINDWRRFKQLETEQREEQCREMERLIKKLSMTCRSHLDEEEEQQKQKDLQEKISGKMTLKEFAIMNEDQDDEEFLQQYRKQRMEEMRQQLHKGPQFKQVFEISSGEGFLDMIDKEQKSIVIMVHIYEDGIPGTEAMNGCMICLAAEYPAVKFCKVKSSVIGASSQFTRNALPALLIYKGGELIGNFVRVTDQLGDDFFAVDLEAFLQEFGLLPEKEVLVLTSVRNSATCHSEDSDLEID
UniProt O75914, whole entry, looked up: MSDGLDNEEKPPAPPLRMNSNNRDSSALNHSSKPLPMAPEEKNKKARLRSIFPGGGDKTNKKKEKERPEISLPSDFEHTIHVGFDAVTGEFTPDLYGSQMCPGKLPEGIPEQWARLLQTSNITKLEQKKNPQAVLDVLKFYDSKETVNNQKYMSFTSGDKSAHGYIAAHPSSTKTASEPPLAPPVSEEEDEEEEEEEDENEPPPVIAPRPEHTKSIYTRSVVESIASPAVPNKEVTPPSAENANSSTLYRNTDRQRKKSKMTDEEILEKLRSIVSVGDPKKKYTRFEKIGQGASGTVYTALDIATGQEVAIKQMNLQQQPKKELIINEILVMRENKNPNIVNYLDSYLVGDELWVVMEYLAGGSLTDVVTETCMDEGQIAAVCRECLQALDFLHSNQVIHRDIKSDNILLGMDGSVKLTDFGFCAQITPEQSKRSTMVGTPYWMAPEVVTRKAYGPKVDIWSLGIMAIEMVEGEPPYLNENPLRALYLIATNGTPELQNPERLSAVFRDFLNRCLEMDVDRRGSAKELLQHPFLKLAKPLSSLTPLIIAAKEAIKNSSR
UniProt Q13442: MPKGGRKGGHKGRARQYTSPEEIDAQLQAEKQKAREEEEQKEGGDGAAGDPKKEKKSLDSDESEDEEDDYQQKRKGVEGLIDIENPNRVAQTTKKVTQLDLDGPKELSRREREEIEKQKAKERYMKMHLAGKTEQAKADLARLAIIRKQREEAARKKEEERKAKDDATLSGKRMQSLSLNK
UniProt Q7L3T8: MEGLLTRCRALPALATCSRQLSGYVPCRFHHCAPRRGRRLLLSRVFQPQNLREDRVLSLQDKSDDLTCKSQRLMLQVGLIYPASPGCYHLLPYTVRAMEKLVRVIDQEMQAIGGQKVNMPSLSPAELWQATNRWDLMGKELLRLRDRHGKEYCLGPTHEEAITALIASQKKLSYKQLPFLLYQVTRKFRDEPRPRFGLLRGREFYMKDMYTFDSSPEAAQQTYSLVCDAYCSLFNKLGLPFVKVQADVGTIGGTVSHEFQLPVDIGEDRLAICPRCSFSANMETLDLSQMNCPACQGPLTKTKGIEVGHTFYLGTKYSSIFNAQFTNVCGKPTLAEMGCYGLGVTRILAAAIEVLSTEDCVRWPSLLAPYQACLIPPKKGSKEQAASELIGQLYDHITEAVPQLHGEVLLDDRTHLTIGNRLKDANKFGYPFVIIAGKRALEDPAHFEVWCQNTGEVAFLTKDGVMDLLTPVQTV
UniProt Q15084: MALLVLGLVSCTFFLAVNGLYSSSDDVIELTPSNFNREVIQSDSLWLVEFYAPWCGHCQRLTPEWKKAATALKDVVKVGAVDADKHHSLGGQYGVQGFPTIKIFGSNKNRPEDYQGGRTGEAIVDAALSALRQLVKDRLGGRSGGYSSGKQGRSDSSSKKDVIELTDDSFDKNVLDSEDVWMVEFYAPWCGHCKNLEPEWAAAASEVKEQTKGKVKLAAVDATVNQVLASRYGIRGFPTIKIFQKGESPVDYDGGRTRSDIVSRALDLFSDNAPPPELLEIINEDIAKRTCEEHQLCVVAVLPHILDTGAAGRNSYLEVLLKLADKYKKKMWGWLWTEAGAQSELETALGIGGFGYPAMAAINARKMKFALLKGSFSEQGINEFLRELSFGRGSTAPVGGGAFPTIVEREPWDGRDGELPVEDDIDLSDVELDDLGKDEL
UniProt Q9H2J4: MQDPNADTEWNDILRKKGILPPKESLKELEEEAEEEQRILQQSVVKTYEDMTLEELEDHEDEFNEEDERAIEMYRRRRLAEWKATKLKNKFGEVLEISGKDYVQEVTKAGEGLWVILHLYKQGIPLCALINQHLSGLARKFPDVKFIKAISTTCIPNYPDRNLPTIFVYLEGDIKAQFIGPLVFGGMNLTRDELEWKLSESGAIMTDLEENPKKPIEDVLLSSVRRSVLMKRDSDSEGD
UniProt Q9H0N5: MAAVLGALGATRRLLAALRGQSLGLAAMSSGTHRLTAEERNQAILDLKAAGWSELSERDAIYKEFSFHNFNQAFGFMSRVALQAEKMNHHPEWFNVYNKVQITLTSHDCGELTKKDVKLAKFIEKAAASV
UniProt O43252: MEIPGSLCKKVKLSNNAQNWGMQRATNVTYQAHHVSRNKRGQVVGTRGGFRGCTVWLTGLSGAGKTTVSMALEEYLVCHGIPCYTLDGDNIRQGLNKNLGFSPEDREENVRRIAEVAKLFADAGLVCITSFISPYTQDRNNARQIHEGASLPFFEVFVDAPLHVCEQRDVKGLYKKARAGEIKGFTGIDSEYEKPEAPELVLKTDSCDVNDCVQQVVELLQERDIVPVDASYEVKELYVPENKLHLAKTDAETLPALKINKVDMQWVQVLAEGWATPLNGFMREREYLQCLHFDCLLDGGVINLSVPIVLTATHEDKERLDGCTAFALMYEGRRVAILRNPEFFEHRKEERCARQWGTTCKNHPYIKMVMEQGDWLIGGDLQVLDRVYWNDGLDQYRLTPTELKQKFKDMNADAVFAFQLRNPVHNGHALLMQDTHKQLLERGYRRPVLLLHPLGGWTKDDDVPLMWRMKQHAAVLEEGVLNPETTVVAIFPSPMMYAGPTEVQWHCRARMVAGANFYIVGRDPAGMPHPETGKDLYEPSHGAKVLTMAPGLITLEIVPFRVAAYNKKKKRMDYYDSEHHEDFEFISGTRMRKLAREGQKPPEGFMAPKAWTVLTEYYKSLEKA
UniProt P05166: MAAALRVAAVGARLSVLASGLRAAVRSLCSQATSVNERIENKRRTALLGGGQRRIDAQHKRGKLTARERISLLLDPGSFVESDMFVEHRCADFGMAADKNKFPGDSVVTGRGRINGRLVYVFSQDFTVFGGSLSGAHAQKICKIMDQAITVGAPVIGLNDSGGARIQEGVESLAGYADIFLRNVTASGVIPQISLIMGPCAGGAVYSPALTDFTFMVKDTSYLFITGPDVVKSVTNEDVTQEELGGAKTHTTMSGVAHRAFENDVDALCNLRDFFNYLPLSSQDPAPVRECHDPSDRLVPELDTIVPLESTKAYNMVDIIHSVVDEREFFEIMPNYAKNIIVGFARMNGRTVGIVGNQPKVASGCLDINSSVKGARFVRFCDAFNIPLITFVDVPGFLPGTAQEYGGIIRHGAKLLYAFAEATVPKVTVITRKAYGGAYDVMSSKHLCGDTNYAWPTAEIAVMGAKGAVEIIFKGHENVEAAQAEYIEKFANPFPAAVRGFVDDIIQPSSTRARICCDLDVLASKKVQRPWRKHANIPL
UniProt Q9UHG3: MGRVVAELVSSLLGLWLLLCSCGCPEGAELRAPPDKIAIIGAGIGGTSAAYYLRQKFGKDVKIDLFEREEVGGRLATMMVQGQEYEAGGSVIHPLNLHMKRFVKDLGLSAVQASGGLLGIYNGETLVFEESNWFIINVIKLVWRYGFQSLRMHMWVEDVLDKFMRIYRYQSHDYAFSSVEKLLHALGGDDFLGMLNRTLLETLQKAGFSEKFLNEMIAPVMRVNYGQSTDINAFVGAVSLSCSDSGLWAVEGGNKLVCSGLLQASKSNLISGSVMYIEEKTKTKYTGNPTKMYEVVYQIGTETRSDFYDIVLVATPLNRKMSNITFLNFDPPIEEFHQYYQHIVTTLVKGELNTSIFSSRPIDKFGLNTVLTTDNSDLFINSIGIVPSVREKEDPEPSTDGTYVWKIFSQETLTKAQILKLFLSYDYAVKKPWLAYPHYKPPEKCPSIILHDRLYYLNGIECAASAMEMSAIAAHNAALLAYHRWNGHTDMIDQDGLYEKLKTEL
UniProt Q8NCN5: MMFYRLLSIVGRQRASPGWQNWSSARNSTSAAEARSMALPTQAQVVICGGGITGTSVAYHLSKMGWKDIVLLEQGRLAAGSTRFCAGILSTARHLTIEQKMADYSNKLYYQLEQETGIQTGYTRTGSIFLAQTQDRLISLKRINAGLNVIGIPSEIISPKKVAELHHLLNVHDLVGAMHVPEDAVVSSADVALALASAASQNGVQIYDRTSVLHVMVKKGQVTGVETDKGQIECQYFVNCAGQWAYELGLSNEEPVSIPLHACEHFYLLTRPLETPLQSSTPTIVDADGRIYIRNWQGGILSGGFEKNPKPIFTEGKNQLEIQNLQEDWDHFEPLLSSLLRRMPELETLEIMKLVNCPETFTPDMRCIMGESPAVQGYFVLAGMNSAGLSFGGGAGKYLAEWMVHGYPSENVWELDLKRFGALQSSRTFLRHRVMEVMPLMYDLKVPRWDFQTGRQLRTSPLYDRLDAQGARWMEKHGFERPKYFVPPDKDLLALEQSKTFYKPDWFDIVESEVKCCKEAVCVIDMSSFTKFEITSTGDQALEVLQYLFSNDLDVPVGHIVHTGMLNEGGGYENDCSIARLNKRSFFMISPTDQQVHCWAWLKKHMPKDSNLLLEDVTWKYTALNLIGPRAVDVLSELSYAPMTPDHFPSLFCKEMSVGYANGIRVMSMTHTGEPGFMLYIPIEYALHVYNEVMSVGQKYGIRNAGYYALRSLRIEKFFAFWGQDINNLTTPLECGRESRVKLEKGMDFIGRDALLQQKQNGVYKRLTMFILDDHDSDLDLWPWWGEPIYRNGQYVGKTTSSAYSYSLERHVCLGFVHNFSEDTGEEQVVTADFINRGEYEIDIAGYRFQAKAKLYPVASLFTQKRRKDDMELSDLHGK
UniProt P0DJ07: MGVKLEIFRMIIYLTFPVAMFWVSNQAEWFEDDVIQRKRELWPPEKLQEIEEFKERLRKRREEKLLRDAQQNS

volasertib = compound: CC[C@@H]1C(=O)N(C)c2cnc(Nc3ccc(C(=O)N[C@H]4CC[C@H](N5CCN(CC6CC6)CC5)CC4)cc3OC)nc2N1C(C)C [volasertib]
Procedure, shortened: as §1

[2] = compound: CC[C@H](C)N1C=C(C2=C(C=C(C=C21)C3=CN=C(C=C3)N4CCNCC4)C(=O)NCC5=C(C=C(NC5=O)C)C)C
Procedure, shortened: as §1

epoxomicin = compound: CC[C@H](C)[C@@H](C(=O)N[C@@H]([C@@H](C)O)C(=O)N[C@@H](CC(C)C)C(=O)[C@]1(CO1)C)NC(=O)[C@H]([C@@H](C)CC)N(C)C(=O)C [epoxomicin]
Procedure, shortened: as §1

[3] = compound: CCn1c(C(=O)N(C2CC2)C2CC2)cc2c3c(ncn3C)c(Nc3cc(C)n(C)n3)nc21
Procedure, shortened: as §1

[4] = compound: CCn1cc(-c2ccnc3[nH]c(-c4cccc(CN(C)C)c4)cc23)c(-c2ccc(NC(=O)N(C)C)cc2)n1
Procedure, shortened: as §1

[5] = compound: CN(C)CC(=O)Nc1ccc2[nH]c(=O)c3ccccc3c2c1
Procedure, shortened: as §1

rosiglitazone = compound: CN(CCOC1=CC=C(C=C1)C[C@H]2C(=O)NC(=O)S2)C3=CC=CC=N3 (racemic) [rosiglitazone]
Procedure, shortened: as §1

[6] = compound: CN1C2=C(C3=C1C(=O)N(N=C3)CC4=CC(=CC=C4)N)SC(=C2)S(=O)C
Procedure, shortened: as §1

[7] = compound: CN1CCC(CNc2ccc3ncc(-c4cccc(OC(F)(F)F)c4)n3n2)CC1
Procedure, shortened: as §1

saracatinib = compound: CN1CCN(CCOc2cc(OC3CCOCC3)c3c(Nc4c(Cl)ccc5c4OCO5)ncnc3c2)CC1 [saracatinib]
Procedure, shortened: as §1

sotrastaurin = compound: CN1CCN(c2nc(C3=C(c4c[nH]c5ccccc45)C(=O)NC3=O)c3ccccc3n2)CC1 [sotrastaurin]
Procedure, shortened: as §1

alvocidib = compound: CN1CC[C@H](c2c(O)cc(O)c3c(=O)cc(-c4ccccc4Cl)oc23)[C@H](O)C1 [alvocidib]
Procedure, shortened: as §1

Tubastatin A = compound: CN1CCc2c(c3ccccc3n2Cc2ccc(C(=O)NO)cc2)C1 [Tubastatin A]
Procedure, shortened: as §1

[8] = compound: CNC(=O)C1=CC=CC=C1NC2=NC(=NC=C2Cl)NC3=C(C=C(C=C3)N4CCOCC4)OC
Procedure, shortened: as §1

defactinib = compound: CNC(=O)c1ccc(Nc2ncc(C(F)(F)F)c(NCc3nccnc3N(C)S(C)(=O)=O)n2)cc1 [defactinib]
Procedure, shortened: as §1

rucaparib = compound: CNCc1ccc(-c2[nH]c3cc(F)cc4c3c2CCNC4=O)cc1 [rucaparib]
Procedure, shortened: as §1

[9] = compound: CNc1nc(-c2ccc3c(N)n[nH]c3c2)cc(N2C[C@@H](C(=O)NC3CCCCC3)CC[C@H]2C)n1
Procedure, shortened: as §1

encorafenib = compound: COC(=O)N[C@@H](C)CNc1nccc(-c2cn(C(C)C)nc2-c2cc(Cl)cc(NS(C)(=O)=O)c2F)n1 [encorafenib]
Procedure, shortened: as §1

[10] = compound: COC(=O)[C@H](CCSC)NC(=O)C1=C(C=C(C=C1)NC[C@H](CS)N)C2=CC=CC=C2
Procedure, shortened: as §1

Measured: log2 fold change

PDIA4 (UniProt P13667)
inactive: [1] 0.003 | volasertib -0.004 | [2] 0.027 | epoxomicin 0.022 | [3] 0.053 | [4] 0.003 | [5] -0.011 | rosiglitazone -0.006 | [6] 0.005 | [7] 0.111 | saracatinib -0.083 | sotrastaurin -0.048 | alvocidib -0.004 | Tubastatin A 0.026 | [8] 0.02 | defactinib 0.043 | rucaparib 0.007 | [9] 0.026 | encorafenib 0.067 | [10] -0.009

PDSS1 (UniProt Q5T2R2)
inactive: [1] 0.013 | volasertib -0.009 | [2] 0.068 | epoxomicin 0.215 | [3] 0.079 | [4] -0.068 | [5] 0.023 | rosiglitazone 0.026 | [6] -0.125 | [7] -0.122 | saracatinib 0.028 | sotrastaurin 0.223 | alvocidib -0.057 | Tubastatin A -0.116 | [8] -0.044 | defactinib -0.055 | rucaparib -0.051 | [9] 0.029 | encorafenib -0.025 | [10] -0.06

PCCA (UniProt P05165)
inactive: [1] 0.077 | volasertib 0.15 | [2] 0.01 | epoxomicin 0.014 | [3] -0.005 | [4] -0.075 | [5] 0.058 | rosiglitazone 0.068 | [6] -0.003 | [7] -0.099 | saracatinib -0.01 | sotrastaurin 0.017 | alvocidib -0.02 | Tubastatin A -0.016 | [8] -0.006 | defactinib -0.043 | rucaparib -0.036 | [9] -0.028 | encorafenib 0.019 | [10] -0.008

PARD6B (UniProt Q9BYG5)
inactive: [1] 0.016 | volasertib 0.023 | [2] -0.01 | epoxomicin 0.366 | [3] -0.158 | [4] 0.001 | [5] 0.102 | rosiglitazone 0.047 | [6] 0.048 | [7] 0.001 | saracatinib 0.037 | sotrastaurin -0.06 | alvocidib -0.306 | Tubastatin A -0.111 | [8] 0.036 | defactinib -0.085 | rucaparib 0.119 | [9] 0.015 | encorafenib -0.024 | [10] -0.205

PDCL (UniProt Q13371)
inactive: [1] -0.117 | volasertib -0.123 | [2] 0.062 | epoxomicin 0.199 | [3] -0.046 | [4] -0.002 | [5] -0.035 | rosiglitazone -0.086 | [6] 0 | [7] -0.066 | saracatinib -0.069 | sotrastaurin 0.024 | alvocidib -0.141 | Tubastatin A 0.035 | [8] 0.038 | defactinib -0.062 | rucaparib -0.04 | [9] -0.064 | encorafenib -0.008 | [10] 0.074

PAK3 isoform 3 (UniProt O75914)
inactive: [1] -0.03 | volasertib 0.006 | [2] -0.017 | epoxomicin 0.056 | [3] 0.032 | [4] -0.083 | [5] 0.039 | rosiglitazone 0.016 | [6] -0.078 | [7] 0.031 | saracatinib 0.086 | sotrastaurin -0.003 | alvocidib -0.026 | Tubastatin A 0.001 | [8] 0.002 | defactinib -0.015 | rucaparib -0.038 | [9] -0.011 | encorafenib 0.029 | [10] -0.022

PDAP1 (UniProt Q13442)
inactive: [1] -0.053 | volasertib 0.077 | [2] -0.061 | epoxomicin 0.042 | [3] 0.016 | [4] 0.032 | [5] -0.046 | rosiglitazone 0.003 | [6] -0.054 | [7] -0.009 | saracatinib 0.055 | sotrastaurin 0.052 | alvocidib 0.037 | Tubastatin A -0.031 | [8] -0.028 | defactinib -0.011 | rucaparib -0.038 | [9] 0.015 | encorafenib 0.002 | [10] 0.032

PARS2 (UniProt Q7L3T8)
inactive: [1] 0.057 | volasertib 0.104 | [2] 0 | epoxomicin -0.026 | [3] -0.019 | [4] -0.037 | [5] -0.041 | rosiglitazone -0.043 | [6] 0.015 | [7] 0.097 | saracatinib 0.082 | sotrastaurin -0.004 | alvocidib 0.022 | Tubastatin A 0.108 | [8] 0.02 | defactinib -0.036 | rucaparib 0 | [9] -0.037 | encorafenib -0.026 | [10] -0.008

PDIA6 isoform 2 (UniProt Q15084)
inactive: [1] -0.031 | volasertib 0.066 | [2] -0.008 | epoxomicin 0.059 | [3] 0.038 | [4] 0.013 | [5] -0.046 | rosiglitazone -0.022 | [6] 0 | [7] 0.042 | saracatinib 0.001 | sotrastaurin 0.005 | alvocidib 0.043 | Tubastatin A -0.04 | [8] 0.018 | defactinib 0.013 | rucaparib -0.025 | [9] -0.031 | encorafenib -0.009 | [10] 0.056

PDCL3 (UniProt Q9H2J4)
inactive: [1] 0.032 | volasertib -0.018 | [2] -0.014 | epoxomicin 0.044 | [3] 0.01 | [4] -0.052 | [5] -0.047 | rosiglitazone 0.003 | [6] -0.035 | [7] 0.005 | saracatinib -0.002 | sotrastaurin 0.021 | alvocidib -0.021 | Tubastatin A 0.005 | [8] -0.002 | defactinib -0.029 | rucaparib -0.057 | [9] -0.034 | encorafenib -0.026 | [10] 0.027

PCBD2 (UniProt Q9H0N5)
inactive: [1] 0.065 | volasertib 0.07 | [2] -0.032 | epoxomicin -0.008 | [3] -0.028 | [4] -0.023 | [5] -0.054 | rosiglitazone 0.008 | [6] -0.063 | [7] -0.004 | saracatinib 0.038 | sotrastaurin -0.014 | alvocidib 0.038 | Tubastatin A -0.048 | [8] 0.01 | defactinib 0.015 | rucaparib -0.014 | [9] -0.039 | encorafenib -0.01 | [10] 0.028

Pulled one by one from the list above (two):
PDCL3 (UniProt Q9H2J4)
inactive: [1] 0.032 | volasertib -0.018 | [2] -0.014 | epoxomicin 0.044 | [3] 0.01 | [4] -0.052 | [5] -0.047 | rosiglitazone 0.003 | [6] -0.035 | [7] 0.005 | saracatinib -0.002 | sotrastaurin 0.021 | alvocidib -0.021 | Tubastatin A 0.005 | [8] -0.002 | defactinib -0.029 | rucaparib -0.057 | [9] -0.034 | encorafenib -0.026 | [10] 0.027

PDIA6 isoform 2 (UniProt Q15084)
inactive: [1] -0.031 | volasertib 0.066 | [2] -0.008 | epoxomicin 0.059 | [3] 0.038 | [4] 0.013 | [5] -0.046 | rosiglitazone -0.022 | [6] 0 | [7] 0.042 | saracatinib 0.001 | sotrastaurin 0.005 | alvocidib 0.043 | Tubastatin A -0.04 | [8] 0.018 | defactinib 0.013 | rucaparib -0.025 | [9] -0.031 | encorafenib -0.009 | [10] 0.056

Next part:

PAPSS1 (UniProt O43252)
inactive: [1] 0.013 | volasertib 0.035 | [2] 0.014 | epoxomicin 0.027 | [3] -0.005 | [4] -0.04 | [5] -0.02 | rosiglitazone 0.015 | [6] -0.037 | [7] -0.057 | saracatinib 0.083 | sotrastaurin 0.059 | alvocidib -0.099 | Tubastatin A -0.033 | [8] -0.018 | defactinib -0.005 | rucaparib 0.009 | [9] 0.03 | encorafenib -0.004 | [10] 0.022

PCCB isoform 2 (UniProt P05166)
inactive: [1] 0.094 | volasertib 0.121 | [2] 0 | epoxomicin 0.044 | [3] -0.067 | [4] -0.02 | [5] -0.036 | rosiglitazone 0.007 | [6] -0.089 | [7] 0.029 | saracatinib -0.003 | sotrastaurin 0.068 | alvocidib -0.02 | Tubastatin A -0.035 | [8] -0.017 | defactinib -0.004 | rucaparib -0.029 | [9] 0.001 | encorafenib 0.002 | [10] 0.001

PCYOX1 (UniProt Q9UHG3)
inactive: [1] 0.05 | volasertib 0.025 | [2] -0.025 | epoxomicin 0.014 | [3] -0.017 | [4] -0.034 | [5] -0.008 | rosiglitazone 0.017 | [6] -0.038 | [7] 0.111 | saracatinib 0.004 | sotrastaurin 0.017 | alvocidib 0.016 | Tubastatin A -0.037 | [8] -0.022 | defactinib 0.001 | rucaparib -0.024 | [9] -0.087 | encorafenib 0.009 | [10] -0.027

PDPR (UniProt Q8NCN5)
inactive: [1] 0.018 | volasertib -0.076 | [2] -0.004 | epoxomicin 0.015 | [3] -0.052 | [4] -0.083 | [5] 0.016 | rosiglitazone 0.009 | [6] -0.067 | [7] 0.017 | saracatinib -0.004 | sotrastaurin -0.01 | alvocidib -0.11 | Tubastatin A 0.001 | [8] 0.101 | defactinib -0.053 | rucaparib -0.009 | [9] -0.031 | encorafenib -0.018 | [10] -0.023

PET100 (UniProt P0DJ07)
inactive: [1] 0.057 | volasertib -0.067 | [2] 0.001 | epoxomicin -0.071 | [3] -0.03 | [4] 0.015 | [5] 0.004 | rosiglitazone 0.022 | [6] -0.087 | [7] 0.063 | saracatinib 0.035 | sotrastaurin 0.081 | alvocidib 0.006 | Tubastatin A 0.03 | [8] 0.04 | defactinib -0.007 | rucaparib -0.041 | [9] -0.012 | encorafenib -0.079 | [10] 0.004
